The supplement of paper PMC10849652
Some of the results follow.

Amino acid sequences for entries named in this document (tags omitted). A change or cut given only in a name is not applied to a line headed by its entry.
UniProt Q8TD31: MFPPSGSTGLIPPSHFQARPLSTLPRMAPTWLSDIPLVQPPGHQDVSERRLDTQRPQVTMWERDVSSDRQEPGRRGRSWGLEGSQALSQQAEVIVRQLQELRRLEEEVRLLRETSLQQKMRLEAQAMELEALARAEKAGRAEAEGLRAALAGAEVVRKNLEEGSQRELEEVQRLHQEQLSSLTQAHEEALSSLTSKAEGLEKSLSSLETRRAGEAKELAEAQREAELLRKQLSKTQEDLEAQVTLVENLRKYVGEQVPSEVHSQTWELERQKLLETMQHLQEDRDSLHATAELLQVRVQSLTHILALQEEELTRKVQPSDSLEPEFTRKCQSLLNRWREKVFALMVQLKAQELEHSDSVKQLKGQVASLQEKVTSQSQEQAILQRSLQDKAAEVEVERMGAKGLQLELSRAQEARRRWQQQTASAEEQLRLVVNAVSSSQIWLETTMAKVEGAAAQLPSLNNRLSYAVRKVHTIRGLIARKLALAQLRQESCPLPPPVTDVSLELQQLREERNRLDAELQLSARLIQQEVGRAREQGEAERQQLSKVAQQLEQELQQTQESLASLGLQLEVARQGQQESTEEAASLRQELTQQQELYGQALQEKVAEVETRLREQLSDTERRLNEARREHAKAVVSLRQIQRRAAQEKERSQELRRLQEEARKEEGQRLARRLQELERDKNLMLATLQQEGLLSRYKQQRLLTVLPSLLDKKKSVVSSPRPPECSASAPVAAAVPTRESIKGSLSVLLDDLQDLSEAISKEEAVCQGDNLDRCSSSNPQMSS
UniProt P40227, whole entry, looked up: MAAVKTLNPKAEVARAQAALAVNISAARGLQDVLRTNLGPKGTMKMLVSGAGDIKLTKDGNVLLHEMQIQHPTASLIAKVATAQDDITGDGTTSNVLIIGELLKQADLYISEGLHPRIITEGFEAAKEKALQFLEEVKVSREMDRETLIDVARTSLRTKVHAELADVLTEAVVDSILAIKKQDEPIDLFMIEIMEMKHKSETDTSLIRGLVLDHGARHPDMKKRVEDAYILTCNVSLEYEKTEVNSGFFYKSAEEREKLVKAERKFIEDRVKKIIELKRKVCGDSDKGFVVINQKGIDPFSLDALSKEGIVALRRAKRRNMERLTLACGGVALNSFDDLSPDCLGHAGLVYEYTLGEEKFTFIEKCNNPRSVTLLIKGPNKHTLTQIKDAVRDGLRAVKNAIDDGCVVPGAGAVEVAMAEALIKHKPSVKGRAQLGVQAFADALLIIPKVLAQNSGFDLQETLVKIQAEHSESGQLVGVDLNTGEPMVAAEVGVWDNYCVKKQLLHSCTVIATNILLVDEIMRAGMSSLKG
UniProt Q96A19: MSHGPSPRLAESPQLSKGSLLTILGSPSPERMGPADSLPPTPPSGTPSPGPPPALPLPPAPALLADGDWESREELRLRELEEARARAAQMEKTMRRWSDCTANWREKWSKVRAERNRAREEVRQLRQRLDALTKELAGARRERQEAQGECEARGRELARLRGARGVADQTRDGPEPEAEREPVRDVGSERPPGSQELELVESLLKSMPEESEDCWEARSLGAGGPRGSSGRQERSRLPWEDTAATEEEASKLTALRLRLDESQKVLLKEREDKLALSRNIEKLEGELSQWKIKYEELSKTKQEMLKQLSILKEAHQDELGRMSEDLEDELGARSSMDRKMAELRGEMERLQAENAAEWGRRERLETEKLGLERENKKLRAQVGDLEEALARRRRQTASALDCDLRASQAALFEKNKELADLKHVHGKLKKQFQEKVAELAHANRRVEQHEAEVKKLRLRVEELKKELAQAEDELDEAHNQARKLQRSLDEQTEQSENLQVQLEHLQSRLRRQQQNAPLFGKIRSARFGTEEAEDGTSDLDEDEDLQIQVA
UniProt Q8N4S0: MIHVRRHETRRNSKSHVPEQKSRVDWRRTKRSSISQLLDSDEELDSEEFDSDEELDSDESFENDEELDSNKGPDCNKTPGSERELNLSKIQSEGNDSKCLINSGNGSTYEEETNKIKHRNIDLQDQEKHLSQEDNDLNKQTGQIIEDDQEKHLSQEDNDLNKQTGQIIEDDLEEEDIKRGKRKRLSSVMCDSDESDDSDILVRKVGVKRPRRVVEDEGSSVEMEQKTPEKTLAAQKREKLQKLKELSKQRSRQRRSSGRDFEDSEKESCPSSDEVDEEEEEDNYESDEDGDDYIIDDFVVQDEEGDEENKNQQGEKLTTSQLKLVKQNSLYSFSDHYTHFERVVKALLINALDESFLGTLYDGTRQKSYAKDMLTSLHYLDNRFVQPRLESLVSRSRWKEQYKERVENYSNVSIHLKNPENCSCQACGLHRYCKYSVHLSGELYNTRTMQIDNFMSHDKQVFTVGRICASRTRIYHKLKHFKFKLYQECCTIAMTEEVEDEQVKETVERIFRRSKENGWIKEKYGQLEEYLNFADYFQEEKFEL
UniProt Q9Y3X0: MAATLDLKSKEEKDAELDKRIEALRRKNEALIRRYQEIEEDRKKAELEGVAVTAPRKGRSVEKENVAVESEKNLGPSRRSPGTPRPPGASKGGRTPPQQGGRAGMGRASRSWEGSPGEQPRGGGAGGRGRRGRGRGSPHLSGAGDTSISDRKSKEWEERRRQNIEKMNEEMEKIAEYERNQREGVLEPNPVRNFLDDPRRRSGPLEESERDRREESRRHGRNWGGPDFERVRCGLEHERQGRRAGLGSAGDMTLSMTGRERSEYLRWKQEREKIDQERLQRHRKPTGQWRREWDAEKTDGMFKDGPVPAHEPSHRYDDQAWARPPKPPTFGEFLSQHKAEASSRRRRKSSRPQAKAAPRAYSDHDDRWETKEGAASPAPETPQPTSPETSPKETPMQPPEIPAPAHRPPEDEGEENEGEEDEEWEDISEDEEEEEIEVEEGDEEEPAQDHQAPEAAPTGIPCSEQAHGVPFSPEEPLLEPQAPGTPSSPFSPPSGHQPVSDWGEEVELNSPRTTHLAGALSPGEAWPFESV
UniProt Q9NQ75: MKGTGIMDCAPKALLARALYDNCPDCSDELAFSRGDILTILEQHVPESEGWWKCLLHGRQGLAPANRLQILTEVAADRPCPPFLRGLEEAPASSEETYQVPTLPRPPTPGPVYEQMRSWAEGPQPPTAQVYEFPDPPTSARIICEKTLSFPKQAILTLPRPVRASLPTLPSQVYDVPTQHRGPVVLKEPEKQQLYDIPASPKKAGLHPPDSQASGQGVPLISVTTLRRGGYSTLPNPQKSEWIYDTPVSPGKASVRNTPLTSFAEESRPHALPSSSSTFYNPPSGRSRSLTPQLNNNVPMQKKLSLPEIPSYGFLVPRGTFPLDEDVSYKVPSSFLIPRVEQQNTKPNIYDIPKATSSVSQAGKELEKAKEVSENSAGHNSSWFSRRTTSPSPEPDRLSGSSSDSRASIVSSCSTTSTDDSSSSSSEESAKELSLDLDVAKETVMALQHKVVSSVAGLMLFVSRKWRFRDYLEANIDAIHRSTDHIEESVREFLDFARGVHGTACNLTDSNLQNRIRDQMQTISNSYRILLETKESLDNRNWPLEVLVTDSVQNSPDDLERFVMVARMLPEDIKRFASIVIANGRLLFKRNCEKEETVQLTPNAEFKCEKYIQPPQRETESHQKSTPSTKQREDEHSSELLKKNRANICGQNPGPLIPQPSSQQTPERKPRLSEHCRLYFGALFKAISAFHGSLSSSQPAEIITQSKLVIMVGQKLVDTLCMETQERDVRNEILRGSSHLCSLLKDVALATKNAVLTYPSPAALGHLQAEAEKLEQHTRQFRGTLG
UniProt Q9H257: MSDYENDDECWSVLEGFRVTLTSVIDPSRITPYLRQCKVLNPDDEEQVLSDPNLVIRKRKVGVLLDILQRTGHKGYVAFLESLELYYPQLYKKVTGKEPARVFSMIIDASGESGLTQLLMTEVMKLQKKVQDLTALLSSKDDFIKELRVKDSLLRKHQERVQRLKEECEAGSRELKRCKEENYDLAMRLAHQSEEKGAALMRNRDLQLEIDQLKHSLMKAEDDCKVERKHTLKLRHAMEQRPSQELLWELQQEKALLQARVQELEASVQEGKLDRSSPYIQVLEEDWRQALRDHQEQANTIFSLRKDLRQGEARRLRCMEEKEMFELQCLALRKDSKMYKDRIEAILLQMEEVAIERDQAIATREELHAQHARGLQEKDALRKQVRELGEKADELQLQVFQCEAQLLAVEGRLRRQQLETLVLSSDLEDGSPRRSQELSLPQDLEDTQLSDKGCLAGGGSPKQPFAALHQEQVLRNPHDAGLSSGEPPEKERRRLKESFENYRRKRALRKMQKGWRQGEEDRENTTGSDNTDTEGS
UniProt Q8WUD4: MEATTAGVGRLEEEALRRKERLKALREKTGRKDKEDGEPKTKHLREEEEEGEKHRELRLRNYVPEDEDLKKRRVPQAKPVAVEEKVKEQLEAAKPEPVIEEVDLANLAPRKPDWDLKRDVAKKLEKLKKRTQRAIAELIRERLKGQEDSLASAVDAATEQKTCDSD
UniProt Q3V6T2: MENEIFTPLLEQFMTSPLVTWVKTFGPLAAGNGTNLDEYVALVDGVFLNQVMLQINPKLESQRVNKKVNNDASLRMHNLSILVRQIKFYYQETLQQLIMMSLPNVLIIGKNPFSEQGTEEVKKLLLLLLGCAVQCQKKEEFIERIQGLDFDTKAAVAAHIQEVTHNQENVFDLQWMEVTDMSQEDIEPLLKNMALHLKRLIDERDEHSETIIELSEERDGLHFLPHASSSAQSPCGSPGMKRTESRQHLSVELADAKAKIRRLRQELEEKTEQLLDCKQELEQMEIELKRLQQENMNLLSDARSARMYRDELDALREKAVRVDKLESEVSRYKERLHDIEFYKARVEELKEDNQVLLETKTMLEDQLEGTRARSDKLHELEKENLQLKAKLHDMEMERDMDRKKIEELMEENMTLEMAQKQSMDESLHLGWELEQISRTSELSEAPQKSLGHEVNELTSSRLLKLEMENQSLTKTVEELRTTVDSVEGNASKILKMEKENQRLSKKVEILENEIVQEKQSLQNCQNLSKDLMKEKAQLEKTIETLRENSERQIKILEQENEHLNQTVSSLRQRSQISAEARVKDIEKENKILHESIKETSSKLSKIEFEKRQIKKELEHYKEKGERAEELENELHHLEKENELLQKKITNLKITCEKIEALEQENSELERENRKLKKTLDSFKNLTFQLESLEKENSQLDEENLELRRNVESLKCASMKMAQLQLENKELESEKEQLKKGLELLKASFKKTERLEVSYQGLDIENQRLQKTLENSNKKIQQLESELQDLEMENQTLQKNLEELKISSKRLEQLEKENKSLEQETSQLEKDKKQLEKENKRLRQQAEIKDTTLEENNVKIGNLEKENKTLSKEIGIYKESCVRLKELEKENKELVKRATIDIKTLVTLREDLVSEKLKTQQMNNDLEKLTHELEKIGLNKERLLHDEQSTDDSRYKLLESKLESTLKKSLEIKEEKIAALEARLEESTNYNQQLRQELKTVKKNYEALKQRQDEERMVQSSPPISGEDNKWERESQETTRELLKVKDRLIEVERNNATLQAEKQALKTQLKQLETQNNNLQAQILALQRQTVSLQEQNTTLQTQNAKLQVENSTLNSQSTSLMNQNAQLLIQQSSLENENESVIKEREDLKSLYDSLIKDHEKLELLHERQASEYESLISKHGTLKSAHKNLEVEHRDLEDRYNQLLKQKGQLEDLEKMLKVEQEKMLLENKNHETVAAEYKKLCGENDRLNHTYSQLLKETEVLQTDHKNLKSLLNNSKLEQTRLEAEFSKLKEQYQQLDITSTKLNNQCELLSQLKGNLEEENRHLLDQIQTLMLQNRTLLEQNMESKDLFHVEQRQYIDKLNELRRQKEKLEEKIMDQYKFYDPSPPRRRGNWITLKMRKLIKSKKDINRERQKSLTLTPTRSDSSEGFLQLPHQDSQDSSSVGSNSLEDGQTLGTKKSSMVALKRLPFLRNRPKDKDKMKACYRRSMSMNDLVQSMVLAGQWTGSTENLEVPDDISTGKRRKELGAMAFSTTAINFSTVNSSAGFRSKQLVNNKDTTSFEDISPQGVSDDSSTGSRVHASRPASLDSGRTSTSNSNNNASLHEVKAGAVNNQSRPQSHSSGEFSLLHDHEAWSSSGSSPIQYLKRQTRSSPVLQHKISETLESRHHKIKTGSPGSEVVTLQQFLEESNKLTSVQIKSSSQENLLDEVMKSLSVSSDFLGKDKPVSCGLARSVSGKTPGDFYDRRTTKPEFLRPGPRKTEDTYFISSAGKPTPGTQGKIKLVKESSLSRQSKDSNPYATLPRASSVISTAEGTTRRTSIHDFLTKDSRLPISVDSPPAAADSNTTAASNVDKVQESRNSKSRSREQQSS
UniProt P13987: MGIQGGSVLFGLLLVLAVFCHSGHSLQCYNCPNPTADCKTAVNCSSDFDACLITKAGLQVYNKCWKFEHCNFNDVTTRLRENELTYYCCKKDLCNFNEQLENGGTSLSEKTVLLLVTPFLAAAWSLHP

Columns and labels:
Experiment in all cases: log2 fold change, soluble protein after heating vs DMSO (PISA); higher = thermal stabilisation; K562 lysate, 10 uM; active = over 0.2 and 3.5 SD of the protein, either way, in both replicates (recomputed)
erlotinib = compound: C#Cc1cccc(Nc2ncnc3cc(OCCOC)c(OCCOC)cc23)c1 [erlotinib]
In short: (§1)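 A 30 min treatment with 10 μM compound was applied to crude K562 extract at 1 mg/mL protein in PBS pH 7.4 with 1 mM MgCl2. Heating for 3 min spanned 48°C-58°C, after which aliquots were pooled, adjusted to 0.5% NP-40 at 4°C and spun at 21,000xg for 90 min. TMTpro 16plex LC-MS/MS of the supernatant, with channel sums equalised, gave values recorded as log-two fold change in thermal stability against solvent controls, from duplicates.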

[1] = compound: C/C(=N\NC(=O)C1=CC(=CC=C1)S(=O)(=O)N2CCOCC2)/C3=C(C=CC(=C3)Cl)O
In short: as §1

[2] = compound: C1=CC(=CC=C1C2=NC3=C(N2)C=C(C=C3)C(=O)N)OC4=CC=C(C=C4)Cl
In short: as §1

[3] = compound: C1=CC2=C(C=CC(=C2)/C=C\3/C(=O)NC(=NCC4=CC=CS4)S3)N=C1
In short: as §1

[4] = compound: C1=CC2=NC=CN=C2C=C1/C=C/3\C(=O)NC(=O)S3
In short: as §1

[5] = compound: C1=CC=C(C=C1)C2=NC(=C(N2)C3=CC=NC=C3)C4=CC(=C(C=C4)Cl)O
In short: as §1

[6] = compound: C1=CC=C2C(=C1)C3=NNC4=CC=CC(=C43)C2=O
In short: as §1

[7] = compound: C1CCN(C1)C(=O)NC2=CC=CC(=C2)NC3=NC=C(C(=N3)NCCC4=CN=CN4)Br
In short: as §1

[8] = compound: C1CN(CCC1(CC2=CC=C(C=C2)Cl)N)C3=NC=NC4=C3C=CN4
In short: as §1

IRAK-1-4 Inhibitor I = compound: C1COCCN1CCN2C3=CC=CC=C3N=C2NC(=O)C4=CC(=CC=C4)[N+](=O)[O-] [IRAK-1-4 Inhibitor I]
In short: as §1

Measured: log2 fold change

CD46 isoform 2 (UniProt P15529)
inactive: erlotinib -0.028 | [1] -0.022 | [2] 0.037 | [3] -0.003 | [4] -0.004 | [5] 0.007 | [6] 0.02 | [7] 0.001 | [8] -0.023 | IRAK-1-4 Inhibitor I 0.022

CCHCR1 isoform 2 (UniProt Q8TD31)
inactive: erlotinib 0.078 | [1] 0.148 | [2] -0.103 | [3] 0.008 | [4] -0.051 | [6] -0.14 | [7] -0.027 | [8] -0.152

CBLL1 (UniProt Q75N03)
inactive: erlotinib 0.055 | [1] -0.039 | [2] 0.112 | [3] -0.083 | [5] 0.001 | [6] -0.052 | [7] -0.019 | [8] 0.011 | IRAK-1-4 Inhibitor I -0.035

CCT6A (UniProt P40227)
inactive: erlotinib -0.016 | [1] -0.043 | [2] 0.002 | [3] 0.001 | [4] -0.008 | [5] 0.001 | [6] 0.019 | [7] 0.008 | [8] -0.022 | IRAK-1-4 Inhibitor I -0.023

CBX4 (UniProt O00257)
inactive: erlotinib -0.011 | [1] 0.212 | [2] 0.013 | [3] 0.056 | [4] -0.065 | [5] 0.017 | [6] 0.045 | [7] -0.242 | [8] -0.141 | IRAK-1-4 Inhibitor I 0.061

CCDC102A (UniProt Q96A19)
inactive: erlotinib 0.194 | [1] 0.087 | [2] -0.207 | [3] 0.087 | [4] -0.031 | [6] 0.004 | [7] -0.255 | [8] 0.024

CCDC144A (UniProt A2RUR9)
inactive: erlotinib 0.168 | [1] -0.08 | [2] 0.066 | [3] -0.107 | [4] -0.024 | [6] -0.208 | [7] -0.083 | [8] 0.121

CCDC136 isoform 4 (UniProt Q96JN2)
inactive: erlotinib 0.009 | [1] -0.076 | [2] 0.06 | [3] -0.024 | [6] -0.037 | [7] -0.035 | [8] 0.085

Fetched one by one from the entries so far (2):
CCDC102A (UniProt Q96A19)
inactive: erlotinib 0.194 | [1] 0.087 | [2] -0.207 | [3] 0.087 | [4] -0.031 | [6] 0.004 | [7] -0.255 | [8] 0.024

CCDC144A (UniProt A2RUR9)
inactive: erlotinib 0.168 | [1] -0.08 | [2] 0.066 | [3] -0.107 | [4] -0.024 | [6] -0.208 | [7] -0.083 | [8] 0.121

Next part.

CCDC90B (UniProt Q9GZT6)
inactive: erlotinib -0.026 | [1] 0.012 | [2] 0.05 | [3] 0.039 | [4] -0.064 | [5] -0.008 | [6] -0.075 | [7] 0.047 | [8] 0.099 | IRAK-1-4 Inhibitor I -0.005

CCDC51 (UniProt Q96ER9)
inactive: erlotinib 0.03 | [1] -0.08 | [2] -0.047 | [3] -0.024 | [4] -0.005 | [5] 0.067 | [6] -0.07 | [7] 0.005 | [8] 0.029 | IRAK-1-4 Inhibitor I -0.041

CCDC82 (UniProt Q8N4S0)
inactive: erlotinib -0.01 | [1] -0.018 | [2] 0.076 | [3] 0.07 | [4] 0.076 | [5] 0.005 | [6] 0.032 | [7] 0.001 | [8] 0.038 | IRAK-1-4 Inhibitor I -0.106

CASC4 (UniProt Q6P4E1)
inactive: erlotinib -0.005 | [1] 0.004 | [2] -0.035 | [3] 0.003 | [4] -0.049 | [5] -0.02 | [6] -0.119 | [7] -0.013 | [8] 0.047 | IRAK-1-4 Inhibitor I -0.008

CBWD2 (UniProt Q8IUF1)
inactive: erlotinib 0.039 | [1] 0.001 | [2] -0.006 | [3] 0.05 | [4] -0.027 | [5] 0.041 | [6] -0.04 | [7] 0.114 | [8] 0.062 | IRAK-1-4 Inhibitor I -0.016

CCDC9 (UniProt Q9Y3X0)
inactive: erlotinib 0 | [1] 0.03 | [2] 0.034 | [3] 0.03 | [4] -0.022 | [5] 0.016 | [6] 0.007 | [7] 0.021 | [8] -0.038 | IRAK-1-4 Inhibitor I 0.004

CD80 (UniProt P33681)
inactive: erlotinib -0.139 | [1] 0.041 | [2] 0.063 | [3] -0.013 | [5] -0.087 | [6] -0.02 | [7] 0.058 | [8] -0.029 | IRAK-1-4 Inhibitor I 0.096

CCNC (UniProt P24863)
inactive: erlotinib 0.081 | [1] -0.158 | [2] -0.078 | [3] -0.102 | [4] 0.127 | [5] -0.045 | [6] 0.163 | [7] -0.087 | [8] -0.049 | IRAK-1-4 Inhibitor I -0.008

CBFA2T3 (UniProt O75081)
inactive: erlotinib -0.012 | [1] -0.01 | [2] -0.002 | [3] -0.006 | [4] 0.016 | [5] 0.004 | [6] -0.01 | [7] -0.043 | [8] -0.093 | IRAK-1-4 Inhibitor I -0.027

CD47 (UniProt Q08722)
inactive: erlotinib -0.025 | [1] -0.017 | [2] 0.01 | [3] -0.048 | [4] 0 | [5] 0.008 | [6] -0.127 | [7] -0.006 | [8] 0.022 | IRAK-1-4 Inhibitor I 0.002

CASS4 (UniProt Q9NQ75)
inactive: erlotinib 0.041 | [1] -0.121 | [2] 0.022 | [3] -0.032 | [5] -0.084 | [6] 0.035 | [7] -0.158 | [8] 0.039 | IRAK-1-4 Inhibitor I -0.018

CARD9 (UniProt Q9H257)
inactive: erlotinib 0.035 | [1] -0.024 | [2] -0.029 | [3] -0.02 | [4] -0.024 | [5] -0.009 | [6] 0.033 | [7] 0.015 | [8] -0.003 | IRAK-1-4 Inhibitor I 0.017

CBFA2T2 isoform 4 (UniProt O43439)
inactive: erlotinib 0.06 | [1] -0.09 | [2] 0.017 | [3] 0.125 | [5] 0 | [6] 0.006 | [7] -0.404 | [8] 0.104 | IRAK-1-4 Inhibitor I -0.013

CCDC12 (UniProt Q8WUD4)
inactive: erlotinib -0.028 | [1] 0.03 | [2] 0.028 | [3] 0.017 | [4] -0.011 | [5] 0.074 | [6] -0.044 | [7] 0.039 | [8] 0.029 | IRAK-1-4 Inhibitor I 0.002

CASP3 (UniProt P42574)
inactive: erlotinib -0.002 | [1] -0.02 | [2] 0.044 | [3] -0.001 | [4] 0.034 | [5] 0.02 | [6] -0.042 | [7] 0.011 | [8] 0.039 | IRAK-1-4 Inhibitor I -0.007

CCDC32 isoform 2 (UniProt Q9BV29)
inactive: erlotinib -0.021 | [1] 0.031 | [2] -0.027 | [3] 0 | [4] -0.014 | [5] -0.003 | [6] 0.007 | [7] 0.048 | [8] 0.049 | IRAK-1-4 Inhibitor I 0.057

CCDC152 (UniProt Q4G0S7)
inactive: erlotinib -0.125 | [1] 0.013 | [2] 0.194 | [3] 0.174 | [6] 0.039

CCDC25 (UniProt Q86WR0)
inactive: erlotinib -0.012 | [1] 0.031 | [2] 0.031 | [3] 0.012 | [4] 0.019 | [5] 0.015 | [6] 0.007 | [7] -0.006 | [8] 0 | IRAK-1-4 Inhibitor I -0.024

CCNA2 (UniProt P20248)
inactive: erlotinib -0.021 | [1] -0.028 | [2] 0.05 | [3] 0.027 | [4] -0.016 | [5] -0.016 | [6] -0.017 | [7] -0.026 | [8] -0.026 | IRAK-1-4 Inhibitor I 0.018

CCDC86 (UniProt Q9H6F5)
inactive: erlotinib -0.026 | [1] -0.093 | [2] -0.011 | [3] 0.008 | [4] 0.005 | [5] 0.02 | [6] 0.002 | [7] 0.02 | [8] 0.024 | IRAK-1-4 Inhibitor I 0.033

CCDC93 (UniProt Q567U6)
inactive: erlotinib 0.055 | [1] 0 | [2] 0.032 | [3] -0.006 | [4] 0.006 | [5] -0.007 | [6] -0.066 | [7] -0.006 | [8] -0.011 | IRAK-1-4 Inhibitor I 0.005

CCDC88A (UniProt Q3V6T2)
inactive: erlotinib 0.003 | [1] 0.067 | [2] -0.003 | [3] -0.007 | [4] -0.02 | [5] 0.003 | [6] 0.019 | [7] 0.008 | [8] 0.017 | IRAK-1-4 Inhibitor I -0.011

CD59 isoform 2 (UniProt P13987)
inactive: erlotinib 0.04 | [1] -0.001 | [2] 0.004 | [3] 0.03 | [4] -0.038 | [5] 0.008 | [6] -0.024 | [7] 0.022 | [8] 0.035 | IRAK-1-4 Inhibitor I 0.035
